Assay results: article doi:10.1101/2025.10.29.685270
Construct, isoform or probe ends are uncertain for at least one entry. At least one verdict rests on a figure or table, not on a statement of the authors.

Amino acid sequences for entries named in this document (tags omitted). Residues count along the entry.
UniProt P51608, 90-181: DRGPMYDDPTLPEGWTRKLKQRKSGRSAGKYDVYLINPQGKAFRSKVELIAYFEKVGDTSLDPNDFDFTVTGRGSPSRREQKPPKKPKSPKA

Target: MECP2 wt MBD (Homo sapiens) (UniProt P51608)
Assay: EMSA
Conditions: strand 2 C12=5mC; residues 90-181; letters put together from the description

Does “AAAAAAAAAAATGAAAAAAAAAAA (double strand) [mCpA 24-mer, dA/dT context]” bind?
Result: binds
